Experimental data: paper PMC5833342
Results are given in words; binding and its absence hold for the method and conditions named. Binding seen in cells or lysates may run through a third protein. These calls come from enrichment with a bait or labelling near it, and not all partners need be listed.

Amino acid sequences for entries named in this document (tags omitted). Residues count along the entry.
UniProt P10451, residues 17-314: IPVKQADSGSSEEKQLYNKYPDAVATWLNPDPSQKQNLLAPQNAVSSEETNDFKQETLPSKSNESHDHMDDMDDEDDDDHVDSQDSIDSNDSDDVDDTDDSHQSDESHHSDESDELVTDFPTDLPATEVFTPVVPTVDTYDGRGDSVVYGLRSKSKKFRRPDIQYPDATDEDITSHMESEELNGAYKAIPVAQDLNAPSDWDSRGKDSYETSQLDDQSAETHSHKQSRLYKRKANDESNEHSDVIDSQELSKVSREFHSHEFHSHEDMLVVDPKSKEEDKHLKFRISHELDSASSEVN
UniProt P35222: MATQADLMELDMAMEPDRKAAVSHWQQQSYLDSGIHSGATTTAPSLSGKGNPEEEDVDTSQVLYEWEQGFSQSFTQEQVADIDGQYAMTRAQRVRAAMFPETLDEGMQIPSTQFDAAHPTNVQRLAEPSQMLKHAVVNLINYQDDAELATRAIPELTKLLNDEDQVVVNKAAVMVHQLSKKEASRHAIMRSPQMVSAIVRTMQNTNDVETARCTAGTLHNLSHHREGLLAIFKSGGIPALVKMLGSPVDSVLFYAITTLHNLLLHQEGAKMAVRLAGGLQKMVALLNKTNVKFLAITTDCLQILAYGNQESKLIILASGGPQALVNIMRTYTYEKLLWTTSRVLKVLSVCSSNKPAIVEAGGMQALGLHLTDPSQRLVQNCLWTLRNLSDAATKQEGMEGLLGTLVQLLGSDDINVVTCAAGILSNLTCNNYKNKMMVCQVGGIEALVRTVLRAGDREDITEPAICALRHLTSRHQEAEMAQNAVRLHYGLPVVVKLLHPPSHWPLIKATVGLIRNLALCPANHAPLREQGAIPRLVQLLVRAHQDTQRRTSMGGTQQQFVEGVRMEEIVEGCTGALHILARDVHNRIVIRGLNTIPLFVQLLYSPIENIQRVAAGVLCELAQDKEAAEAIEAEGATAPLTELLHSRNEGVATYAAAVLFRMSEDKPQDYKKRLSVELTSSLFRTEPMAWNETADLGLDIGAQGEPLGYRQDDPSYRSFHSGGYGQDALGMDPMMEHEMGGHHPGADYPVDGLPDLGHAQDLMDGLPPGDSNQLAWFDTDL

Biological target: Flag-OPN (Osteopontin) (UniProt P10451)
Assay: affinity purification with mass spectrometry; CCLP1 cells transfected with Flag-OPN or empty vector; immunoprecipitation by anti-Flag mAb; silver staining and MS of coprecipitated proteins

For “β-Catenin, endogenous (from UniProt P35222 1-781)”, the binding was “binds”.
